What all share (assay): protein microarray (ProtoArray v5.0), streptavidin-Alexa Fluor 647
Settings in all cases: 3'-biotin; 20 mM Tris (pH 7.5), 5 mM MgCl2, 100 mM KCl, 0.1% Tween-20, A/T-rich and random oligonucleotide blockers; temperature not stated; high values mean tight binding

Assay [1] has as its system FAM128A (human).
The test system of assay [2] is FAM131C (human).
In assay [3] the test system is FAM134B (human).
The test system of assay [4] is FAM136A (human).
In assay [5] the target is T1, FAM13A1 (UniProt O94988).
T1 sequence: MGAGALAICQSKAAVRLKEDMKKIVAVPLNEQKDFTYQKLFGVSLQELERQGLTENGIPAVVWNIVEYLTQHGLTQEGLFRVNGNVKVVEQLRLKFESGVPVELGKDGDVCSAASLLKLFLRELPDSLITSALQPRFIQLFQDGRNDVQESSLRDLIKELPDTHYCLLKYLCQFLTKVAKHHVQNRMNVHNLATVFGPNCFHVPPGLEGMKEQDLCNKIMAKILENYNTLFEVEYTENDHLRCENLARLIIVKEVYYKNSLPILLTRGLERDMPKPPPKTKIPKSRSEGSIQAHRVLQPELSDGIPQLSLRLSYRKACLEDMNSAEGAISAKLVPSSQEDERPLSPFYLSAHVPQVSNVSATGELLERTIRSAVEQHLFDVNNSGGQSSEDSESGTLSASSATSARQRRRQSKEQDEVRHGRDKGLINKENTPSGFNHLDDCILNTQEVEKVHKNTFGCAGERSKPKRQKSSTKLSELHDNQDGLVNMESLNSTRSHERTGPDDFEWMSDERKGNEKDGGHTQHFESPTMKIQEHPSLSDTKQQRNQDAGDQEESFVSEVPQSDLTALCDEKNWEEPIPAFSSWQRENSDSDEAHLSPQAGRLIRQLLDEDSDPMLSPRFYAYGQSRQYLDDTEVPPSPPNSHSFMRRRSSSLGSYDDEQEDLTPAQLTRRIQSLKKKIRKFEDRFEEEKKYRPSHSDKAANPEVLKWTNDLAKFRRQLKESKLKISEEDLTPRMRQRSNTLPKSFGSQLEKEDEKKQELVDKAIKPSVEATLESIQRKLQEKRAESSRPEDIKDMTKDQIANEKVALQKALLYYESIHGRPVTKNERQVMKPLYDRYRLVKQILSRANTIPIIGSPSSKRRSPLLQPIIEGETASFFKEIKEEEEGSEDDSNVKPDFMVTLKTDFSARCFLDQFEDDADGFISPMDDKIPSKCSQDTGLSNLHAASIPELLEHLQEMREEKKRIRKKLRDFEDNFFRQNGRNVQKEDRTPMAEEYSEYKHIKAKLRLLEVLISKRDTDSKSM

For assay [6], the system named is FAM19A3 (human).
Assay [7] concerns FAM21C (human).
Assay [8] has as its system FAM26A (human).
Assay [9] relates to FAM33A (human).
Assay [10] has as its system FAM3A (human).

Several values for one entry are separate records, joined by “and”; a condition that tells them apart may be missing. Identical values can stand only once. The list shows a part of the results. For some of these results: The source does not settle which construct or isoform was used.

We go through 1 sequence from article PMC5996148.

On to “GGGAGGCTGAGGCAGG [G4-1 biotinylated (PQS2)]”, for which the binding signal in assay [1] was -0.308 z-score; in assay [2] it was -0.323 z-score; in [3], -0.332 z-score; in [4] it was -0.335 z-score; in assay [5], -0.306 z-score; in assay [6] it was -0.264 z-score. The binding signal was -0.308 z-score in assay [7]; -0.338 z-score in assay [8]; -0.289 z-score in assay [9]; -0.333 z-score and -0.305 z-score in [10].
